Data as given in PubChem BioAssay AID504764 (Drosophila RNAi Screening Center, 2011)

- Aim: 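Knock-downs that raise or lower a Notch target reporter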 (primary screen)
- Cells: Drosophila Kc167 cells
- Reagents: long dsRNA against Drosophila genes
- Time to read-out: about 5 days (4 days dsRNA, then 24 h after transfection)
- Challenge: transfection of constitutively active membrane-tethered Notch lacking the extracellular domain, read 24 h later
- Measured: 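Light from a Notch-responsive E(spl)m3 luciferase reporter under active Notch, with control-promoter and no-Notch reporter wells to normalise; raw counts from paired wells a and b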
- Reading the numbers: induced reporter light, run 1, well a and induced reporter light, run 1, well b: higher = more light from the Notch target reporter with active Notch; control promoter light, run 1, well a and control promoter light, run 1, well b: higher = more light from the viral control promoter (cell number, transfection, viability); uninduced reporter light, run 1, well a: higher = more light from the Notch target reporter without active Notch
- Active means: 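Wells with low control signal or poorly matching duplicates excluded; duplicates averaged; per source plate, z beyond ±2 for induced/control log2 ratio or beyond ±1.8 for induced/uninduced marks a hit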
- Meaning of the calls: active = modifier hit (raised or lowered Notch signal); inactive = not a hit
The screen tested about 22,000 reagents; shown is a random part of those with a known target gene and a result. Of all reagents, 403 (1.9%) got an active call. 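Unnormalised raw counts per well; ratio z-scores behind the hit calls and whether each hit raises or lowers signal are not deposited.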 Unmarked entries are inactive. The numbers tell different reagents against one gene apart. Not stated in the record: the amount of reagent.

| gene knocked down | dsRNA no. | induced reporter light, run 1, well a | induced reporter light, run 1, well b | control promoter light, run 1, well a | control promoter light, run 1, well b | uninduced reporter light, run 1, well a |
| --- | --- | --- | --- | --- | --- | --- |
| CG8036 | 1 | 87900 | 74255 | 65625 | 62840 | 5720 |
| RluA-2 | 1 | 1.92e5 | 2.15e5 | 1.84e5 | 1.51e5 | 12745 |
| Cpr64Ab | 1 | 1.28e5 | 98580 | 1.69e5 | 1.41e5 | 5540 |
| CG34210 | 1 | 1.66e5 | 1.46e5 | 1.43e5 | 1.44e5 | 11230 |
| vlc | 1 | 1.46e5 | 1.35e5 | 1.54e5 | 1.54e5 | 10320 |
| CG3663 | 1 | 1.82e5 | 1.68e5 | 1.82e5 | 1.83e5 | 13728 |
| CG9518 | 1 | 1.05e5 | 75215 | 1.24e5 | 91625 | 13155 |
| CG34430 | 1 | 2.08e5 | 1.95e5 | 2.35e5 | 2.45e5 | 17535 |
| CG9393 | 1 | 1.22e5 | 1.31e5 | 1.31e5 | 1.15e5 | 9605 |
| CG31778 | 1 | 87590 | 71565 | 68685 | 65430 | 5620 |

Continued (3 carried over from the part before).
| gene knocked down | dsRNA no. | induced reporter light, run 1, well a | induced reporter light, run 1, well b | control promoter light, run 1, well a | control promoter light, run 1, well b | uninduced reporter light, run 1, well a |
| --- | --- | --- | --- | --- | --- | --- |
| CG34430 | 1 | 2.08e5 | 1.95e5 | 2.35e5 | 2.45e5 | 17535 |
| CG9393 | 1 | 1.22e5 | 1.31e5 | 1.31e5 | 1.15e5 | 9605 |
| CG31778 | 1 | 87590 | 71565 | 68685 | 65430 | 5620 |
| Pink1 | 1 | 1.90e5 | 1.68e5 | 1.93e5 | 1.71e5 | 14910 |
| Coa8 | 1 | 1.40e5 | 1.18e5 | 2.14e5 | 2.12e5 | 9835 |
| CG13545 | 1 | 2.04e5 | 1.99e5 | 1.44e5 | 1.69e5 | 14275 |
| CG31495 | 1 | 1.61e5 | 1.90e5 | 1.76e5 | 1.96e5 | 15640 |
| Strip | 1 | 69840 | 71010 | 40295 | 23010 | 7995 |
| mRpL11 | 1 | 1.94e5 | 2.00e5 | 2.01e5 | 2.07e5 | 16270 |
| CG13038 | 1 | 1.34e5 | 1.05e5 | 1.40e5 | 1.15e5 | 8482 |
| Cbp80 | 1 | 73075 | 61030 | 52280 | 64025 | 3950 |
| CG34136 | 1 | 1.11e5 | 98525 | 94060 | 1.16e5 | 11082 |
| CG11360 | 1 | 66250 | 66195 | 77500 | 90865 | 4905 |
| CG11360 | 2 | 94600 | 91645 | 2.02e5 | 1.73e5 | 8950 |
